Patent publication US20220323406A1, “METHODS AND COMPOSITIONS FOR DIFFERENTIATING STEM CELLS” (Massachusetts Institute of Technology, priority 2019, published 2022)
“And” between values parts separate entries of the source, which are not always exact repeats. Identical values can stand only once. Counter-ions that a name gives are not always drawn. At least one read-out could not be matched to a standard name with certainty.

System: ENR+CD organoids
Assay: Primary screen: ATP (CellTiter-Glo 3D, CTG) cell number/viability, 2.5-D 384-well ENR+CD organoids;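 note: compounds given at plating and again on day 3 over a 6-day differentiation from ENR+CV stem-cell-enriched precursors, ATP measured on day 6, plate median as control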
[1] = primary screen, standard z score, dose 0.08 uM
[2] = primary screen, standard z score, dose 0.40 uM
[3] = primary screen, standard z score, dose 2.00 uM
[4] = primary screen, standard z score, dose 10.00 uM
[5] = primary screen, dose 0.08 uM, standard z score
[6] = primary screen, dose 0.40 uM, standard z score
[7] = primary screen, dose 2.00 uM, standard z score
[8] = primary screen, dose 10.00 uM, standard z score

CCN(CC)C(=O)/C(C#N)=C/c1cc(O)c(O)c([N+](=O)[O-])c1 [Entacapone]
Z.CTG [1]: −0.275
Z.CTG [2]: −0.154
Z.CTG [3]: 0.493
Z.CTG [4]: −0.935

N#Cc1ccc(C(c2ccc(C#N)cc2)n2cncn2)cc1 [Letrozole]
Z.CTG (standard z score) (primary screen, dose 0.08 uM): −0.031
Z.CTG (standard z score) (primary screen, dose 0.40 uM): 0.241
Z.CTG (standard z score) (primary screen, dose 2.00 uM): 0.236
Z.CTG (standard z score) (primary screen, dose 10.00 uM): 0.408

Oc1ncnc2[nH]ncc12 [Allopurinol]
Z.CTG (standard z score) (primary screen, dose 0.08 uM): 0.506
Z.CTG (standard z score) (primary screen, dose 0.40 uM): −0.234
Z.CTG (standard z score) (primary screen, dose 2.00 uM): −0.387
Z.CTG (standard z score) (primary screen, dose 10.00 uM): −1.085

CCN1CCC[C@H]1CNC(=O)c1cc(S(N)(=O)=O)ccc1OC [Levosulpiride]
Z.CTG (standard z score) (primary screen, dose 0.08 uM): −0.102
Z.CTG (standard z score) (primary screen, dose 0.40 uM): −0.015
Z.CTG (standard z score) (primary screen, dose 2.00 uM): 0.074
Z.CTG (standard z score) (primary screen, dose 10.00 uM): 0.215

COC(=O)C1=C(C#N)NC(C)=C(C(=O)OC(C)C)C1c1cccc([N+](=O)[O-])c1 (centres unmarked) [Nilvadipine]
SSMD.CTG (strictly standardized mean difference, ATP/CTG) (Table 5A primary screen, continuation part; four rows per treatment = four doses, dose not given; column head inferred): 0.590 and 0.302 and 0.500 and 0.402
Z.CTG [5]: 0.493
Z.CTG [6]: 0.324
Z.CTG [7]: 0.506
Z.CTG [8]: 0.460

C=C[C@@]1(C)CC(=O)[C@]2(O)[C@@]3(C)[C@@H](O)CCC(C)(C)[C@@H]3[C@H](O)[C@H](OC(C)=O)[C@@]2(C)O1 [Forskolin]
Z.CTG [1]: −0.508
Z.CTG [2]: −0.418
Z.CTG [3]: −0.789
Z.CTG [4]: −0.284

CCN(CC)C(=O)c1ccc(C2=CC3(CCNCC3)Oc3cccc(O)c32)cc1 [ADL5859 HCl]
Z.CTG (standard z score) (primary screen, dose 0.08 uM): 0.645
Z.CTG (standard z score) (primary screen, dose 0.40 uM): 0.389
Z.CTG (standard z score) (primary screen, dose 2.00 uM): 0.695
Z.CTG (standard z score) (primary screen, dose 10.00 uM): 0.465

CCn1c(=O)c2c(nc(/C=C/c3ccc(OC)c(OC)c3)n2C)n(CC)c1=O [Istradefylline]
Z.CTG (standard z score) (primary screen, dose 0.08 uM): −0.107
Z.CTG (standard z score) (primary screen, dose 0.40 uM): 0.158
Z.CTG (standard z score) (primary screen, dose 2.00 uM): −0.375
Z.CTG (standard z score) (primary screen, dose 10.00 uM): −0.091

CCNC(=O)[C@H]1O[C@@H](n2cnc3c(N)nc(NCCc4ccc(CCC(=O)O)cc4)nc32)[C@H](O)[C@@H]1O [CGS 21680 HCl]
Z.CTG [1]: 0.724
Z.CTG [2]: 1.049
Z.CTG [3]: 0.799
Z.CTG [4]: −3.328

CCOC(=O)[C@H](CCc1ccccc1)N[C@@H](C)C(=O)N1C(=O)N(C)C[C@H]1C(=O)O [Imidapril HCl]
Z.CTG (standard z score) (primary screen, dose 0.08 uM): −0.796
Z.CTG (standard z score) (primary screen, dose 0.40 uM): −0.354
Z.CTG (standard z score) (primary screen, dose 2.00 uM): −0.564
Z.CTG (standard z score) (primary screen, dose 10.00 uM): −0.543

CC(C)n1c(/C=C/C(O)CC(O)CC(=O)O)c(-c2ccc(F)cc2)c2ccccc21 (centres unmarked) [Fluvastatin Sodium]
Z.CTG [1]: −0.384
Z.CTG [2]: −1.151
Z.CTG [3]: −2.653
Z.CTG [4]: −4.206

Cc1nc(C(=O)NCC(=O)O)c(O)c2ccc(Oc3ccccc3)cc12 [FG-4592]
Z.CTG [1]: 0.782
Z.CTG [2]: 0.679
Z.CTG [3]: 0.692
Z.CTG [4]: 0.568

COc1cc(N2CCC(N3CCN(C)CC3)CC2)ccc1Nc1ncc(Cl)c(Nc2ccccc2P(C)(C)=O)n1 [AP26113]
Z.CTG (standard z score) (primary screen, dose 0.08 uM): −0.130
Z.CTG (standard z score) (primary screen, dose 0.40 uM): 0.145
Z.CTG (standard z score) (primary screen, dose 2.00 uM): −1.333
Z.CTG (standard z score) (primary screen, dose 10.00 uM): −4.012

O=C(C[S+]([O-])Cc1ccco1)NC/C=C\COc1cc(CN2CCCCC2)ccn1 (centres unmarked) [Lafutidine]
Z.CTG (standard z score) (primary screen, dose 0.08 uM): 0.363
Z.CTG (standard z score) (primary screen, dose 0.40 uM): 0.346
Z.CTG (standard z score) (primary screen, dose 2.00 uM): 0.329
Z.CTG (standard z score) (primary screen, dose 10.00 uM): −0.235

C[C@@H](NCCCc1cccc(C(F)(F)F)c1)c1cccc2ccccc12 [Cinacalcet HCl]
Z.CTG [1]: −1.061
Z.CTG [2]: −0.712
Z.CTG [3]: −0.028
Z.CTG [4]: −1.076

CCC(=O)NCC[C@@H]1CCc2ccc3c(c21)CCO3 [Ramelteon]
Z.CTG [5]: −0.066
Z.CTG [6]: 0.369
Z.CTG [7]: −0.752
Z.CTG [8]: 0.358

C#Cc1cccc(Nc2ncnc3cc4c(cc23)OCCOCCOCCO4)c1 [Icotinib]
Z.CTG (standard z score) (primary screen, dose 0.08 uM): −0.047
Z.CTG (standard z score) (primary screen, dose 0.40 uM): −0.146
Z.CTG (standard z score) (primary screen, dose 2.00 uM): −0.970
Z.CTG (standard z score) (primary screen, dose 10.00 uM): −2.552

C[C@@H]1CN(CC(=O)Nc2ccc3c(c2)Cc2cccc(-c4cc(=O)cc(N5CCOCC5)o4)c2S3)C[C@H](C)O1 [KU-60019]
Z.CTG (standard z score) (primary screen, dose 0.08 uM): 0.273
Z.CTG (standard z score) (primary screen, dose 0.40 uM): 0.094
Z.CTG (standard z score) (primary screen, dose 2.00 uM): 0.290
Z.CTG (standard z score) (primary screen, dose 10.00 uM): −1.246

CNC(=C[N+](=O)[O-])NCCSCc1ccc(CN(C)C)o1 [Ranitidine]
Z.CTG [5]: −0.121
Z.CTG [6]: 0.370
Z.CTG [7]: −0.165
Z.CTG [8]: −0.625

Cc1[nH]c(/C=C2\C(=O)Nc3ccc(S(=O)(=O)N(C)c4cccc(Cl)c4)cc32)c(C)c1C(=O)N1CCN(C)CC1 [SU11274]
Z.CTG [5]: 0.852
Z.CTG [6]: 0.645
Z.CTG [7]: 0.139
Z.CTG [8]: −1.954

CCC(COC(=O)c1cc(OC)c(OC)c(OC)c1)(c1ccccc1)N(C)C (centres unmarked) [Trimebutine]
Z.CTG (standard z score) (primary screen, dose 0.08 uM): 0.017
Z.CTG (standard z score) (primary screen, dose 0.40 uM): −0.483
Z.CTG (standard z score) (primary screen, dose 2.00 uM): −2.409
Z.CTG (standard z score) (primary screen, dose 10.00 uM): −2.545

Nc1cccc2c1C(=O)N(C1CCC(=O)NC1=O)C2=O (centres unmarked) [Pomalidomide]
Z.CTG [5]: 0.150
Z.CTG [6]: 0.536
Z.CTG [7]: −0.517
Z.CTG [8]: −0.729

Cc1c(C(=O)NN2CCCCC2)nn(-c2ccc(Cl)cc2Cl)c1-c1ccc(Cl)cc1 [Rimonabant]
Z.CTG [5]: 0.611
Z.CTG [6]: 0.492
Z.CTG [7]: 0.561
Z.CTG [8]: 0.152

Cc1c(-c2ccc(O)cc2)n(Cc2ccc(OCCN3CCCCCC3)cc2)c2ccc(O)cc12 [Bazedoxifene HCl]
Z.CTG (standard z score) (primary screen, dose 0.08 uM): 1.009
Z.CTG (standard z score) (primary screen, dose 0.40 uM): 0.873
Z.CTG (standard z score) (primary screen, dose 2.00 uM): −1.862
Z.CTG (standard z score) (primary screen, dose 10.00 uM): −2.741

CC(C)NCC(O)COc1ccc(COCCOC(C)C)cc1 (centres unmarked) [Bisoprolol fumarate]
Z.CTG (standard z score) (primary screen, dose 0.08 uM): −0.249
Z.CTG (standard z score) (primary screen, dose 0.40 uM): −0.136
Z.CTG (standard z score) (primary screen, dose 2.00 uM): −0.048
Z.CTG (standard z score) (primary screen, dose 10.00 uM): 0.139

CC(C)OC(=O)C1=CN(C(=O)c2ccc(F)c(F)c2)CC(C)(C)c2c1[nH]c1ccccc21 [XL335]
Z.CTG (standard z score) (primary screen, dose 0.08 uM): 0.297
Z.CTG (standard z score) (primary screen, dose 0.40 uM): −0.615
Z.CTG (standard z score) (primary screen, dose 2.00 uM): −0.619
Z.CTG (standard z score) (primary screen, dose 10.00 uM): −0.373

CCN[C@H]1CN(CCCOC)S(=O)(=O)c2sc(S(N)(=O)=O)cc21 [Brinzolamide]
Z.CTG (standard z score) (primary screen, dose 0.08 uM): −0.017

COCCCC/C(=N\OCCN)c1ccc(C(F)(F)F)cc1 [Fluvoxamine maleate]
Z.CTG [1]: 0.274
Z.CTG [2]: 0.607
Z.CTG [3]: 0.504
Z.CTG [4]: 0.330

CN1CC(=O)N2[C@H](c3ccc4c(c3)OCO4)c3[nH]c4ccccc4c3C[C@@H]2C1=O [Tadalafil]
Z.CTG [5]: −0.046
Z.CTG [6]: 0.863
Z.CTG [7]: 1.042
Z.CTG [8]: 0.644

O=C(/C=C/c1ccc(O)c(O)c1)OCCc1ccccc1 [Caffeic Acid Phenethyl Ester]
Z.CTG [1]: 0.627
Z.CTG [2]: −0.026
Z.CTG [3]: −0.152
Z.CTG [4]: −1.221

CCOc1nc2cccc(C(=O)O)c2n1Cc1ccc(-c2ccccc2-c2nnn[nH]2)cc1 [Candesartan]
Z.CTG [1]: −0.008
Z.CTG [2]: −0.299
Z.CTG [3]: −0.473
Z.CTG [4]: −0.604
